Laboratory results as given in PMC10163288.
Some of the results follow.

B1: il10ra_site1_normal_mot_HHH_b2_03743_af2_000000240_0001_38_52_H_._HHH_b2_06571_0001_0000200010_0000001_0_af2pred_dldesign_0_af2pred (protein)
chain: SSSSSGRLELDRLRHELTDLLNAGKFEEAKKVLEELEKLAKELGDEAAIAYVEYYKKLLESSSSS
B2: il10ra_site1_sap_26_mot_HHH_b1_03277_000000286_0001_44_57_H_._HHH_b1_04841_af2_0001_0000200008_0000001_0_0001_af2pred_0001 (protein)
chain: SSSSSDEEDQERVEELLEEAKHIEDEEEVRKLVAEAHRIASEREDPELIHLVLEVYLELLSSSSS
B3: il10ra_site1_normal_mot_HHH_b2_00475_000000107_0001_44_57_H_._HHH_b2_07420_0001_0000300019_0000001_0 (protein)
chain: SSSSSSEVVELLFRAQRLLAEGNPEEAEKVVEEAKELAEELGDEELRRYVEILLHFIEAHSSSSS
B4: il10ra_site1_normal_mot_0750aae41c39e4229e2ea8fa354cc919_0001_1_000000144_0001_37_51_H_._HHH_b2_02525_0001_0000300017_0000001_0 (protein)
chain: SSSDEEQEVLELLARAARLAEEGNPEEARELVERAEELAQELNDPKLEIAVEFWRRLDEELSSSS
B5: il10ra_site1_normal_mot_HHH_b2_02337_000000026_0001_38_52_H_._HHH_b2_04113_0001_0000100006_0000001_0 (protein)
chain: SSSSDVEEELERLLEEAEELLKEGDIERLSRVLAEAVRYAFRLGNEEILRRLWELVQLAASSSSS
B6: il10ra_site1_sap_16_mot_HHH_b2_01494_af2_000000274_0001_37_50_H_._HHH_b1_00871_0001_0000400029_0000002_0_0001 (protein)
chain: SSSSDEANEEIYRLLRELIELVRKGDEEKLEELQKEIEELIREANSFVFEASLRLVERDLSSSSS
B7: il10ra_site1_normal_mot_HHH_b2_00573_000000208_0001_39_53_H_._HHH_b1_02008_0001_0000300016_0000001_0 (protein)
chain: SSSSDEEREEFERLYEEAEELLKEGDPEEVFEALRRLIELASELNDPELFRRVIRLIRELFSSSS
B8: il10ra_site1_sap_11_mot_HHH_b2_04343_af2_000000097_0001_38_52_H_._HHH_b2_06677_0001_0000200014_0000001_0_0001_af2pred_0001 (protein)
chain: SSSSDHEAEVILRKAEQAYKAYRETGDERYERAIEAALFSAEKLGDEEIVERIRELLEELKSSSS
B9: il10ra_site1_sap_19_mot_HHH_b1_07466_000000214_0001_1_19_H_._HHH_b1_03450_0001_0000300019_0000001_0_0001 (protein)
chain: SSSSSEVEERVEELIEEVEKALEQGDYQLAIELLREAVRIAAENDNPELIEELRRLAHEIVSSSS
B10: il10ra_site1_normal_mot_HHH_b2_07731_000000003_0001_42_56_H_._HHH_b2_03545_0001_0000300038_0000001_0_af2pred_dldesign_0_af2pred (protein)
chain: SSSSSEVLARVRELLDRARALYEAGKPQEAYDLLKEAALLASENKDLEAQRLVRETAAELASSSS
B11: il10ra_site1_normal_mot_HHH_b2_00475_000000107_0001_44_57_H_._8f6b033cc37342a50be9072d9d391e88_0001_0001_0000200005_0000002_0_af2pred_0001 (protein)
chain: SEEEKLLEELEKKAPDPLVRAALLSVKVALELNDPEKVKQALRLLLRILGDPRVEELLKKLEEEH
B12: il10ra_site1_sap_7_mot_HHH_b1_02464_000000069_0001_1_19_H_._HHH_b1_04704_af2_0001_0000100004_0000002_0_0001 (protein)
chain: SSSSDREEELEELLKELEKLVEEGDRERFAEVVKRVLRLAFQANDPEALQEVWRIMREYKSSSSS
B13: il10ra_site1_normal_mot_HHH_b1_06057_000000129_0001_22_38_H_._HHH_b1_06187_0001_0000100008_0000002_0 (protein)
chain: SSSSTLEESVRFALRVAEELREQGDPEAARELLEKLLELLKEAGDDELFRLVEELLEELEKSSSS
B14: il10ra_site1_sap_18_mot_HHH_b2_04275_000000272_0001_20_36_H_._HHH_b1_07345_af2_0001_0000300023_0000001_0_0001_af2pred_0001 (protein)
chain: TEEILEAVEELLRELNTPKAKALLYLIKYLRERGAPPEHILESLKAAARVLGDPEVLRLIEEAEK
B15: il10ra_site1_normal_mot_HHH_b1_00952_af2_000000199_0001_44_57_H_._66c2fca85847babee3b8944584cfd08f_0001_1_0001_0000400019_0000001_0 (protein)
chain: SQWERSLKLAFESGNLESLIEQFQWQAEFQGNPELEKVVELLREALEKRDPELLEEAIEVLEKLA
B16: il10ra_site1_sap_23_mot_HHH_b2_06507_af2_000000245_0001_1_17_H_._HHH_b1_00115_af2_0001_0000400016_0000001_0_0001 (protein)
chain: SSSSSNEELYELIKKANELLKEGNPEEAEEVLKEAEELARELGNRVFLVQVEFLLRALRSSSSSS
B17: il10ra_site1_normal_mot_HHH_b1_07449_af2_000000024_0001_1_18_H_._a87409d3d07ab778cdfa687b5837bbba_0001_0001_0000100004_0000001_0_af2pred_0001 (protein)
chain: SIEEILMELIFRFRDDPELFELLIEAYALLNEGNPEEAVEVLERVLREAGVPPEQVERLKEEAEK
B18: il10ra_site1_normal_mot_HHH_b1_01082_af2_000000031_0001_3_19_H_._HHH_b2_03304_af2_0001_0000100003_0000002_0 (protein)
chain: SSSSSDEEYRIAKEAIEEARHIEDKEEARKVIEEAIEVAEEGNNTSAAFALRHLLRLLEQSSSSS
B19: il10ra_site1_normal_mot_HHH_b2_03764_000000138_0001_1_20_H_._HHH_b2_04981_0001_0000500053_0000001_0 (protein)
chain: SSSSDEEFEEVYRLLEEASELDQEGDKEEAEKLVEEAIELAREGGNEVLTWSAEYLLRIIRSSSS
B20: il10ra_site1_sap_24_mot_104c758fc23488854646035ccb2100c6_0001_000000282_0001_15_29_H_._94e27040e1373b393086b07032fe3839_0001_af2_0001_0000400015_0000001_0_0001 (protein)
chain: SSSSSDFEEFKRLVQEVLEAIREGDEEKARELLEELERLARELNNWAAKWTVRLLEEQIRSSSSS
B21: il10ra_site1_sap_24_mot_HHH_b2_03743_af2_000000240_0001_38_52_H_._HHH_b1_00224_0001_0000300021_0000001_0_0001 (protein)
chain: SSSSDMEEELVEALERLVRQAIEWGDPESARLLLEAAEMLAEELGDPELERLVEELEELLNSSSS
B22: il10ra_site1_normal_mot_HHH_b1_05357_000000034_0001_23_39_H_._HHH_b2_05287_0001_0000100004_0000001_0_af2pred_0001 (protein)
chain: SSSSSSESEEEVKELLEEAKKIEDLEEFNYVLIRAFAVARRAGDPELEELIEEFAQEESSSSSSS
B23: il10ra_site1_normal_mot_8756ee2cf497b5429c717dfc0c0bcfd6_0001_000000186_0001_1_13_H_._HHH_b1_01787_0001_0000300030_0000001_0 (protein)
chain: SSSSSSTEELLELLREVAELEHEGNHEEAREVIEEAKELAEEAGNDVFLVQIEYLLREVNSSSSS
B24: il10ra_site1_normal_mot_HHH_b1_08176_000000188_0001_1_20_H_._HHH_b1_03017_af2_0001_0000300015_0000001_0 (protein)
chain: SSSSDEEFQEALELILEAVRLLLRGDEEEAEELLEKAKELVEKEGDERLARVIESLLEAISSSSS

Molecular target: il10ra, Q13651
Assay: yeast display titration

Apparent Kd, inactive:
B1 no binding seen
B2 no binding seen
B3 no binding seen
B4 no binding seen
B5 no binding seen
B6 no binding seen
B7 no binding seen
B8 no binding seen
B9 no binding seen
B10 no binding seen
B11 no binding seen
B12 no binding seen
B13 no binding seen
B14 no binding seen
B15 no binding seen
B16 no binding seen
B17 no binding seen
B18 no binding seen
B19 no binding seen
B20 no binding seen
B21 no binding seen
B22 no binding seen
B23 no binding seen
B24 no binding seen

Taken from above (five entries):
Apparent Kd, inactive:
B19 no binding seen
B20 no binding seen
B21 no binding seen
B22 no binding seen
B23 no binding seen
